Results from one PubChem assay

The results are deposited in PubChem (AID1745848; NCATS, 2022).

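A cell-based luciferase reporter for ATXN2 expression, read by light output at 24 h, with a viability multiplex.
Compounds were tested as a dilution series from about 0.0037 to 57 µM.
The number is the fitted half-maximal inhibitory concentration (AC50); a lower value means a more potent inhibitor.
Calls come from curve class and activity score: actives score 40–100, while inconclusive compounds (weak, partial, poorly fitted or single-point curves) score 1–39.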

Values are in µM.
All entries here are filed as inconclusive.
Only part of the assay is shown, chiefly results filed as inconclusive.
A potency from a partial, single-point or poor curve is only a rough figure.
Some entries filed as inconclusive have a full curve.
Activity scores are not listed here.

| # | SMILES | potency (µM) | curve |
|---|---|---|---|
| 1 | `Cc1ccc(C(=O)NNC(=O)CCCN2C(=O)/C(=C/c3ccccc3Cl)SC2=S)cc1` | 14.13 | inhibitor, partial curve, poor fit |
| 2 | `COc1cc2nc(CN(C)Cc3ccc(SC)cc3)[nH]c(=O)c2cc1OC` | 15.85 | inhibitor, partial curve, poor fit |
| 3 | `Cc1ccc(-c2cn(-c3ccc(OC(F)F)cc3)c3[n+]2CCCCC3)cc1` | 25.12 | inhibitor, partial curve, poor fit |
| 4 | `COc1cc(Nc2ncc3c(n2)CCN(C(=O)Nc2ccc(C(C)C)cc2)C3)cc(OC)c1OC` | 2.818 | inhibitor, partial curve, poor fit |
| 5 | `CC(Sc1ccc(Cl)cc1)C(=O)NNC(=O)c1ccccc1O` (centres unmarked) | 1.995 | inhibitor, partial curve |
| 6 | `COc1cc2c3nnc(-c4ccc(F)cc4)c-3cn(Cc3ccc(C)cc3)c2cc1OC` | 28.18 | inhibitor, partial curve, poor fit |
| 7 | `Cn1nnnc1Sc1ncnc2scc(-c3ccccc3Br)c12` | 25.12 | inhibitor, partial curve, poor fit |
| 8 | `O=C(CSc1nc(Nc2ccccc2)nc(N2CCOCC2)n1)Nc1cc(Cl)ccc1O` | 28.18 | inhibitor, single point |
| 9 | `NC(Cc1ccccc1)c1csc(Nc2nncc3ccccc23)n1` (centres unmarked) | 31.62 | inhibitor, partial curve, poor fit |
| 10 | `CCOC(=O)C(=CNc1ccc2c(c1)nnn2-c1ccc(Cl)cc1)C(=O)OCC` | 28.18 | inhibitor, single point |
| 11 | `COc1cccc(C(=O)NC2CC3CCCC(C2)N3CC(=O)Nc2ccccc2C(F)(F)F)c1` (centres unmarked) | 14.13 | inhibitor, partial curve, poor fit |
| 12 | `O=C(N/N=C\c1ccc([N+](=O)[O-])s1)c1cncc(Br)c1` | 3.162 | inhibitor, full curve, poor fit |
| 13 | `CCOC(=O)c1c(N)n(CCN2CCCCC2)c2nc3ccccc3nc12` | 8.912 | inhibitor, partial curve, poor fit |
| 14 | `CCCc1cc(NCc2ccccn2)n2nc(C)c(-c3ccccc3)c2n1` | 5.623 | inhibitor, single point |
| 15 | `Cc1sc2cc3c(c(C(=O)c4ccccc4)[n+]2c1C)-c1cccc2cccc-3c12` | 10 | inhibitor, partial curve, poor fit |
| 16 | `COc1ccc(-c2csc(Nc3ccc(S(N)(=O)=O)cc3)n2)cc1OC` | 8.912 | inhibitor, partial curve, poor fit |
| 17 | `Cc1cc(N2CCN(S(=O)(=O)c3ccc(Cl)cc3)CC2)c2ccccc2n1` | 2.239 | inhibitor, partial curve |
| 18 | `COc1ccc(Nc2oc(COc3ccccc3OC)nc2C#N)cc1` | 2.818 | inhibitor, partial curve, poor fit |
| 19 | `Cc1ccc(NC(=O)COc2ccc(/C=C3/SC(=Nc4ccccc4)N(Cc4cccnc4)C3=O)cc2)cc1` | 15.85 | inhibitor, partial curve, poor fit |
| 20 | `O=C(C1CCC(CNS(=O)(=O)c2cccs2)CC1)N1CCN(c2ccc(F)cc2)CC1` (centres unmarked) | 1.585 | inhibitor, partial curve |
| 21 | `O=C(Nc1nc(-c2ccccn2)cs1)Nc1ccc(F)cc1F` | 4.467 | inhibitor, full curve |
| 22 | `COc1cc(C(=O)N/N=C(\Cc2ncc[nH]2)c2ccccc2)cc(OC)c1OC` | 3.162 | inhibitor, single point |
| 23 | `COc1ccccc1C(=O)NNC(=O)c1nn(Cc2ccccc2)c(=O)c2ccccc12` | 19.95 | inhibitor, partial curve, poor fit |
| 24 | `O=C1c2cccc3c([N+](=O)[O-])ccc(c23)C(=O)N1c1ccc(Cl)cn1` | 35.48 | inhibitor, single point |
| 25 | `CC(C)=CCc1ccc(O)c(=O)cc1C(C)C` | 3.162 | inhibitor, single point |
| 26 | `OCCNc1c2ccccc2nc2c(F)c(F)c(F)c(F)c12` | 6.31 | inhibitor, full curve, poor fit |
| 27 | `O=C(NCc1ccco1)c1nc2c(nnn2Cc2ccccc2Cl)c(=O)[nH]1` | 1.778 | inhibitor, partial curve, poor fit |
| 28 | `COC(=O)c1cc(NC(=O)c2cc(-c3ccc(C(F)(F)F)cc3)oc2C(F)(F)F)ccc1N1CCOCC1` | 28.18 | inhibitor, partial curve, poor fit |
| 29 | `Cc1ccc(OCCCC(=O)NNC(=O)c2ccccn2)cc1` | 28.18 | inhibitor, partial curve, poor fit |
| 30 | `O=C(Nc1ccc(Br)c(C(F)(F)F)c1)c1ccc(C(F)(F)F)cc1` | 3.981 | inhibitor, single point |
| 31 | `C/C(=N\NC(=O)COc1cccc(C)c1)c1ccc2ccccc2c1O` | 15.85 | inhibitor, partial curve, poor fit |
| 32 | `Cc1ccc(C(NC(=O)C2CCN(CCOc3ccc(Cl)cc3Cl)CC2)c2ccccn2)cc1` (centres unmarked) | 25.12 | inhibitor, partial curve, poor fit |